In publication PMC5626701, “Caspase-1 cleaves PPARγ for potentiating the pro-tumor action of TAMs” (Nature Communications, 2017):
No constants are given. Whether binding was seen depends on the method and setting. In cells and extracts the contact can be indirect. These calls come from enrichment with a bait or labelling near it, and not all partners need be listed.

Target: C-terminal HA-tagged tPPARγΔ64D mutant with aa 1-64 deleted (HEK293T) (human) (UniProt P37231)
Assay: affinity purification with mass spectrometry; HA-tagged full-length PPARγ or tPPARγΔ64D expressed in HEK293T; anti-HA immunoprecipitation from whole-cell extract, Protein A/G beads, low-salt washes; two bands (35 and 45 kDa) specific to tPPARγΔ64D excised, in-gel trypsin digestion, MS

binding: binds
B1: medium-chain acyl-CoA dehydrogenase (MCAD), endogenous in THP-1 (enzyme, human (endogenous in THP-1), UniProt P11310 26-421, looked up)
chain: KANRQREPGLGFSFEFTEQQKEFQATARKFAREEIIPVAAEYDKTGEYPVPLIRRAWELGLMNTHIPENCGGLGLGTFDACLISEELAYGCTGVQTAIEGNSLGQMPIIIAGNDQQKKKYLGRMTEEPLMCAYCVTEPGAGSDVAGIKTKAEKKGDEYIINGQKMWITNGGKANWYFLLARSDPDPKAPANKAFTGFIVEADTPGIQIGRKELNMGQRCSDTRGIVFEDVKVPKENVLIGDGAGFKVAMGAFDKTRPVVAAGAVGLAQRALDEATKYALERKTFGKLLVEHQAISFMLAEMAMKVELARMSYQRAAWEVDSGRRNTYYASIAKAFAGDIANQLATDAVQILGGNGFNTEYPVEKLMRDAKIYQIYEGTSQIQRLIVAREHIDKYKN
notes: medium-chain acyl-CoA dehydrogenase (MCAD), mitochondrial; detected and precipitated with an anti-MCAD antibody; source: endogenous, THP-1 cell extract
